# Source: the supplement of paper PMC3334620
# The full ranking holds about 33,000 sequences; the median of “E-score (-0.5 to 0.5)” is about -8e-05, and the highest 2% start at about 0.23. The list shows a part of the results.
# Biological target: T1, Nrg2 (UniProt P38082)
# T1 sequence: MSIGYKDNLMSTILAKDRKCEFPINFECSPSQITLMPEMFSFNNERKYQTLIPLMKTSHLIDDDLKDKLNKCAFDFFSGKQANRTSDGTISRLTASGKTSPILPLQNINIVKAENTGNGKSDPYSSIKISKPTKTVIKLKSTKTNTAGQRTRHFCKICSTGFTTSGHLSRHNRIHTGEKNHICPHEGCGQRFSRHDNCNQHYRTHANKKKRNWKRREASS
# Assay: PBM E-score (8-mer binding enrichment) (E-score (-0.5 to 0.5)); higher = stronger / more preferred TF binding
# Settings: protein concentration: 100 nM; construct: GST-full length
# Method in brief: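 For each ungapped eight-base word taken together with its reverse complement, the Universal PBM Analysis Suite assigned an E-score. Binding data came from GST-tagged yeast transcription factors, applied at about 100-200 nM, on universal all-10-mer Agilent arrays made double-stranded by primer extension. Fluorescent anti-GST marked bound protein, and scans were normalised with masliner.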
row,Sequence,PBM E-score
1,ATGCATAC,0.158
2,AGCCATAG,-0.141
3,AGTGGTGA,0.0048
4,CCGGACGC,-0.0466
5,ACAAAACA,0.119
6,GTTATAAA,0.0259
7,CTCACAGA,-0.0399
8,ATGTAGTG,0.106
9,AAGACTTG,-0.0923
10,GTTAGTAA,-0.0112
11,AGTTGCAG,0.0622
12,CTGCGCCC,-0.199
13,ACTTGATA,0.161
14,CGATTGCG,-0.00482
15,CCTTTACC,-0.23
16,AACGGACT,-0.246
17,ACGGCACA,-0.0257
18,GTTTATTA,0.194
19,GTCCTCCA,-0.0208
20,ACATCCAA,0.0589
21,GGGCGGAA,0.152
22,CCTAGGAG,-0.097
23,ATCGGAAG,-0.0539
24,TAATAGTA,0.192
25,CCGATCAA,0.0214

row,Sequence,PBM E-score
1,GGATGAAC,-0.0785
2,GTCGGCCA,-0.148
3,CCCTAAAA,-0.112
4,ACCAAGCG,-0.105
5,TACATGTA,0.092
6,CCCCCCAC,-0.477
7,CCAGACTA,-0.0181
8,ATGGGACC,0.124
9,CCAATTAG,0.199
10,CTAGCGCA,0.0292
11,CTCGGGAA,-0.0568
12,AGTAACAC,0.106
13,CGCACAAG,0.0299
14,AAAAGATT,0.0589
15,CAGAGCTA,-0.283
16,CACATTTC,0.192
17,GGTGCCTA,-0.0877
18,CAATACAA,0.275
19,GAGGAGAA,-0.111
20,CATAACTA,-0.0347
21,CAGGGAGC,-0.0709
22,CTCAGTGC,-0.00885
23,CTTAGCCA,-0.00182
24,CGGGTACG,-0.237
25,ACGAAGAG,-0.00211

row,Sequence,PBM E-score
1,AGAGCTAA,-0.00606
2,ATACTCTG,0.123
3,ATAGTTGA,0.1
4,AAGGAGAA,0.0595
5,CCGGATGC,-0.107
6,CTTGATTC,0.0772
7,ACCCAACA,-0.0856
8,ATCTAATC,0.05
9,CTAGTAAG,0.00559
10,CTTGAGTA,0.0663
11,ACAGAAGG,-0.181
12,ATTTATAA,0.186
13,ACGCTACT,-0.108
14,AGATCATC,-0.0349
15,CAGGCAGC,-0.0509
16,CATGATGG,-0.0403
17,ACAGCCTG,0.0582
18,CGGCACAC,-0.00765
19,AGGTAGCC,-0.0804
20,GAAGCAGC,-0.167
21,CATATTGC,-0.0107
22,CATCGGCC,-0.0831
23,ATAACACA,0.0812
24,ATTGTTGA,0.146
25,AAGTAGTG,0.0607

# Quoted from the listing.
# PBM E-score, ATCTAATC is entered as 0.05
# PBM E-score, CGGCACAC is entered as -0.00765
# PBM E-score, CTTGAGTA is entered as 0.0663
# PBM E-score, AGGTAGCC is entered as -0.0804
# PBM E-score, CATGATGG is entered as -0.0403
# PBM E-score, ATTTATAA is entered as 0.186

# Additional entries

row,Sequence,PBM E-score
1,ATGCAAGC,0.0922
2,ATAGATCA,0.21
3,AGTTAGAC,0.00674
4,GGTAGCAA,-0.092
5,TATCTAGA,-0.0175
6,CTGGCAAC,-0.079
7,AGTCAGAA,-0.0353
8,GAATTGGC,0.00301
9,ATAAACAT,-0.00844
10,GTATGCAA,0.0781
11,AACCGGTA,-0.149
12,TAAGCTGA,0.0392
13,CAATCCAC,-0.0677
14,ACCGTGTA,0.0649
15,CTCACCAC,-0.0591
16,CTGAAGAA,-0.0719
17,TAACCTAA,-0.00165
18,TCATATAA,0.108
19,AGCTGCCT,-0.298
20,ATCGAATA,-0.0933
21,GTACATCA,0.11
22,CCACCAGA,0.0154
23,TAAATTCA,0.0029
24,GGGAGAGA,-0.159
25,CTCTAGAA,-0.187

row,Sequence,PBM E-score
1,AGCTTTAG,-0.105
2,CCTTGGGC,-0.0447
3,ACGGTCCG,-0.231
4,GGGCACAA,-0.043
5,GTCGAAGA,-0.0187
6,CGACGTAC,0.027
7,CGTAGACG,-0.133
8,GCGTGTAA,-0.0365
9,AACAACTC,0.0486
10,CGCCCTAC,-0.18
11,ACTAATTG,0.139
12,ATATGAGA,0.152
13,CCCATTAG,-0.196
14,GAGAGTGC,-0.178
15,ACGTCGAG,0.0245
16,GAACGTGC,-0.0418
17,CGTGCAAA,0.0253
18,CCAGATCC,-0.0551
19,GGCAAACA,0.0794
20,CGACTGCA,0.0284
21,AACCGACT,-0.0613
22,AACAAACC,0.0713
23,AGTGACTA,-0.133
24,ACAGATGC,-0.126
25,ACCTATAG,-0.0692

row,Sequence,PBM E-score
1,CTCAAGAC,0.0293
2,GCAAAAAC,0.0518
3,AGGCCATG,-0.0657
4,CCTCATAC,-0.146
5,TCAGTAAA,0.0352
6,CTCACCCC,-0.102
7,CGTCCCAA,-0.0267
8,CGCCGCGA,0.0854
9,GTTAACTA,0.273
10,CATCTCCC,-0.0152
11,ATGAAAAT,0.15
12,TAAGAGGA,-0.0476
13,ATGGCCAC,-0.109
14,AAAATTAC,-0.0107
15,CAGTTCAG,-0.00064
16,AAGGCGAG,-0.137
17,GTTGAAAA,-0.00304
18,CCGTCTAA,-0.0402
19,CTGTAAGA,0.00541
20,GCGCACAC,0.046
21,CGCAACGC,-0.0196
22,ACAGTTTA,-0.0808
23,GGGGATAC,-0.0501
24,GAGCACCC,-0.0404
25,CAAGTCAC,-0.0137

row,Sequence,PBM E-score
1,CAGATTTC,-0.0458
2,CGGATTAC,-0.174
3,CACGCCTA,-0.227
4,CCTAGAGC,-0.0927
5,CGTTGGAG,-0.17
6,GTTTCACA,0.0563
7,GGCTTTCA,0.0502
8,GACTGCCA,0.0694
9,GCCGCCCA,-0.0819
10,ACGTGCCC,-0.0325
11,AATGAAGG,0.0439
12,AGTCAAAG,-0.0751
13,ACGCACAA,0.0432
14,CCTCGATA,0.138
15,AACAAACG,0.0693
16,GCTTCCTA,-0.057
17,AGTCTGGA,0.0798
18,GCGGTCCC,0.035
19,TCTCTACA,0.0699
20,ATGAAAGC,0.141
21,AGGCACGA,-0.0256
22,CAGAGAAC,-0.135
23,TTAGGGAA,0.00013
24,ATAACGTC,0.0307
25,GCGCTTCC,-0.0589

row,Sequence,PBM E-score
1,GCTTGAAA,-0.0563
2,TCGCTTCA,-0.0525
3,GCCCCAAA,-0.0545
4,GGCAGACA,-0.0288
5,CTTTGTCA,0.102
6,ACCGCAAG,0.00329
7,AGGAATGG,-0.0567
8,GATCATAC,-0.00914
9,AGACTTCC,-0.11
10,CGACCTAG,0.163
11,AATACACC,0.201
12,CGACTGGC,-0.0371
13,ATACAAGC,0.212
14,CAGGGTGG,0.0924
15,CTGTTGAC,-0.108
16,ACATGTGA,-0.0666
17,ACTTTATA,0.0257
18,ACGTCCTC,-0.0759
19,AGATACGC,0.0646
20,CAAAATAA,0.0401
21,ATTCTACC,-0.0983
22,GATGACCA,-0.113
23,ATCTGAGA,-0.0784
24,CACATATC,0.091
25,ATTGACTC,0.0465

row,Sequence,PBM E-score
1,ATGTTCGA,0.0777
2,GTCAGGGA,0.18
3,TACGGATA,0.0194
4,GCTCGGTA,-0.201
5,AGCATAAC,-0.00035
6,GATTGCAC,0.122
7,CGAATTGA,0.0563
8,AAGGAACT,-0.105
9,ACATATAG,-0.0221
10,TGTGAAAA,-0.0846
11,CTCCACCC,-0.134
12,GATAGATA,-0.06
13,GATCAGGA,0.0728
14,ACAGGACT,-0.104
15,AAGATGGT,0.0332
16,ACGTAAAG,-0.0672
17,CCTCTGCG,-0.241
18,AGTATTGA,0.125
19,AAACGACA,0.203
